The target of assay [1] is Flag-Hst2 S320A (budding yeast) (UniProt P53686). The assay is described as follows: co-IP; Flag-Hst2 proteins precipitated from lysates of overexpressing yeast with anti-FLAG M2 agarose, 4 °C, 1 h, PBS with protease inhibitors and phosphatase inhibitor cocktail (PhosSTOP); washed with PBS with 0.2% Triton X-100; Western blot. A general note: A western blot detects proteins with antibodies after separation by electrophoresis.

Chains of the proteins cited; added tags and fusions are not shown. Lines headed by an entry give the natural chain unless they say otherwise; changes in a name come on top.
UniProt P53686: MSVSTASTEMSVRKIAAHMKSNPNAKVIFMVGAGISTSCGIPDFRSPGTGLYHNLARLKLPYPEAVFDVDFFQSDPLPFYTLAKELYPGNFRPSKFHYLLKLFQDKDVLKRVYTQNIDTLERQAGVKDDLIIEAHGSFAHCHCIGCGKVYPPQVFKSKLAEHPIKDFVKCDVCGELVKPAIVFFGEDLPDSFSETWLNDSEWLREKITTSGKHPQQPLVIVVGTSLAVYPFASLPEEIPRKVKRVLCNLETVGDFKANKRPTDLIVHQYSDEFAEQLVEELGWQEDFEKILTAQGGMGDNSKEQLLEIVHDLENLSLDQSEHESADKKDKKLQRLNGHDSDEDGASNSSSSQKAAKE
UniProt P29311: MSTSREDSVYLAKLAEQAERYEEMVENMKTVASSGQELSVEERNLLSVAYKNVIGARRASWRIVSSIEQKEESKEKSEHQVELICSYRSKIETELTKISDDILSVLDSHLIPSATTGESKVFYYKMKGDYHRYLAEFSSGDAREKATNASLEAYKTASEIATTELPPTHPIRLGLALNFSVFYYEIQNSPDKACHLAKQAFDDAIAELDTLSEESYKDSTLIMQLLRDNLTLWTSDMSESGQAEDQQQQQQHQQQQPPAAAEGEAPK
UniProt P29469: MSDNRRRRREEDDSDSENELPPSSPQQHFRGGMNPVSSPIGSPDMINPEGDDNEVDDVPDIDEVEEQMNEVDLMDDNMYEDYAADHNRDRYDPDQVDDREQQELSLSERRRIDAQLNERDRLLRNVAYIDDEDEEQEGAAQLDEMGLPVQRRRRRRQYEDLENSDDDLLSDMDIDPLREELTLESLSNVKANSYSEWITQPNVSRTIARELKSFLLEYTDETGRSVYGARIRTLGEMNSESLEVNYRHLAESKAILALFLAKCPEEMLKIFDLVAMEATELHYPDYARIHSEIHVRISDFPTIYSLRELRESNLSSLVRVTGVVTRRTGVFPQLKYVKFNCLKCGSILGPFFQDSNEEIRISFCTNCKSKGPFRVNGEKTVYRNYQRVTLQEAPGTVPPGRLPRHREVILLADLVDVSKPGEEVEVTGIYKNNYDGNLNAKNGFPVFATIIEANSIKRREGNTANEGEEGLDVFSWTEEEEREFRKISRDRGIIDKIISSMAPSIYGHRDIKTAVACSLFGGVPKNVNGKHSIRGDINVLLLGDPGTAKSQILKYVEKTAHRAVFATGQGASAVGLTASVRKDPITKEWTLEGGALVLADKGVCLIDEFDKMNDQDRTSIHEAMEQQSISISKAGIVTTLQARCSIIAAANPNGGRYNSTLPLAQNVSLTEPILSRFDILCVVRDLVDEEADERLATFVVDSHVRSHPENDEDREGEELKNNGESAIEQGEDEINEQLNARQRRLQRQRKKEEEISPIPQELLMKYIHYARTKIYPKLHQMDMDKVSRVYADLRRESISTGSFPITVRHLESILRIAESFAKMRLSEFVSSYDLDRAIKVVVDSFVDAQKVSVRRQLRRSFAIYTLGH

The target in assay [2] is Flag-Hst2 S324A (budding yeast) (UniProt P53686). The description is as above.
Assay [3] has as its target Flag-Hst2, overexpressed in yeast (budding yeast) (UniProt P53686). The assay is described as follows: co-IP; Flag-Hst2 precipitated from yeast lysate with anti-FLAG M2 agarose beads; Western blot for minichromosome maintenance2 (Fig. S3).

The text below walks through data of publication PMC7948448.

Results are given in words; binding and its absence hold for the method and conditions named. In cells and extracts the contact can be indirect. Some binding calls cover weakened binding; strength is not graded here.

For the substance “Bmh1, endogenous yeast 14-3-3 protein (from UniProt P29311 1-267)”, the binding result in assay [1] and in assay [2] was “no binding” each time.

For the substance “minichromosome maintenance2 (from UniProt P29469 1-868)”, the binding result in assay [3] was “binds”.
